Experiment [1] concerns the target T1, ESYT2 fused with BirA*-FLAG (BioID bait) (human) (UniProt A0FGR8).
T1 sequence: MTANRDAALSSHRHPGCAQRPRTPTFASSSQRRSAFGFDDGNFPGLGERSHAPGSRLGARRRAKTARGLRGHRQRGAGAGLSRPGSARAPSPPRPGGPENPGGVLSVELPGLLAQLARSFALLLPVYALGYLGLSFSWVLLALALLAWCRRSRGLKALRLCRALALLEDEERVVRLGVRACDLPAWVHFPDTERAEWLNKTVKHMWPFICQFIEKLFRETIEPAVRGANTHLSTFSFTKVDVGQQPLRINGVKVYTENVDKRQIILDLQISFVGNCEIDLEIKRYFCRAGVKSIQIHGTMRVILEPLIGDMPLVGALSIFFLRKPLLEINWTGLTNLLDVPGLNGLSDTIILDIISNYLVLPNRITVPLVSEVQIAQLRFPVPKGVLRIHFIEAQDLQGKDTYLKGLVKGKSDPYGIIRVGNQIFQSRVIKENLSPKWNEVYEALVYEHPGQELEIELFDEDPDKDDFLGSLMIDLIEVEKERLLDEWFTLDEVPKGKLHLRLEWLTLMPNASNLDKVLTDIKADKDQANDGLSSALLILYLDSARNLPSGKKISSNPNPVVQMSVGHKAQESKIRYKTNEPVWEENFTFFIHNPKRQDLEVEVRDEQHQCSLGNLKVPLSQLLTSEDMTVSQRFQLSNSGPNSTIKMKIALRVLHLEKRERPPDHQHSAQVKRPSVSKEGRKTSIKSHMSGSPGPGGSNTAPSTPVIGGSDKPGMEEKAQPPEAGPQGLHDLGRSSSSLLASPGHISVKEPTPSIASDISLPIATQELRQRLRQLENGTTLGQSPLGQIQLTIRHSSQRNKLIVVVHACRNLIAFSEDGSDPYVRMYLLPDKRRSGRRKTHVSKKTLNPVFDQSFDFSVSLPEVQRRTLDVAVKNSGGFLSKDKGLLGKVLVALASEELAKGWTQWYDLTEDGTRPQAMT
The experiment can be described thus: proximity labelling; BioID in stable inducible Flp-In T-REx 293 cells expressing BirA*-FLAG baits; mass spectrometry of biotinylated preys; SAINTexpress, two biological replicates per bait, 50 negative control runs, BFDR threshold 1%.

Experiment [2] concerns the target T2, ESYT1 fused with BirA*-FLAG (BioID bait) (human) (UniProt Q9BSJ8).
T2 sequence: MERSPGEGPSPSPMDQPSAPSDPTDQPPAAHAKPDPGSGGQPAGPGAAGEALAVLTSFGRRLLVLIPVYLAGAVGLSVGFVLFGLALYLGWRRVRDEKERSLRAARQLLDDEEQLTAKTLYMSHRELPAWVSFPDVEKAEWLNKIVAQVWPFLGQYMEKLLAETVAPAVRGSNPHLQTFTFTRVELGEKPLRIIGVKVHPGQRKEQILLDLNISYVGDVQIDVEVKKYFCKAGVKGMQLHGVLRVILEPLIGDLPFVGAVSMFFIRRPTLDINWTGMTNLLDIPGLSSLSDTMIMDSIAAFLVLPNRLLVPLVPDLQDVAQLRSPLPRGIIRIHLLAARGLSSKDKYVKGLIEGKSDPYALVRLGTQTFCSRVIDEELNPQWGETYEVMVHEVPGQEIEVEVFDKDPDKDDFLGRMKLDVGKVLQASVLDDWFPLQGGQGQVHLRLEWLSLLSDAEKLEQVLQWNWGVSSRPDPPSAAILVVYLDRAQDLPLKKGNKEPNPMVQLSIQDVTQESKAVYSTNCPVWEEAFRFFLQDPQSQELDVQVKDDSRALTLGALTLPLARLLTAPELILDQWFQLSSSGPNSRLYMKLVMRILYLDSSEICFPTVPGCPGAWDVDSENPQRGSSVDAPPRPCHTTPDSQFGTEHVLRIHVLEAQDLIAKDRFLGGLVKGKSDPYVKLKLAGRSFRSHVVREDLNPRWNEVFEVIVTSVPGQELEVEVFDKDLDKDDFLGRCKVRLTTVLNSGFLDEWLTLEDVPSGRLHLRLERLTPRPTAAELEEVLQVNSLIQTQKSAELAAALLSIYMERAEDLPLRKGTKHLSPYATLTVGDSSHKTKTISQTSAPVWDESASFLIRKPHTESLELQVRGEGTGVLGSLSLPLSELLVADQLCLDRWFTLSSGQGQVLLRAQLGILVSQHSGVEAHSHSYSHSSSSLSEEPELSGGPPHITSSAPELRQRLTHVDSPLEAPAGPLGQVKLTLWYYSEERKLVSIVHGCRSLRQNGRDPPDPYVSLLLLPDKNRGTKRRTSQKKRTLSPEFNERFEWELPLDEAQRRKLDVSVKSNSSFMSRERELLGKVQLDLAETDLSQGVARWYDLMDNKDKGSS
Described as above.

In article PMC10627786 one finds binding data, which are given here for 1 molecule.

No constants are given. Whether binding was seen depends on the method and setting. Binding seen in cells or lysates may run through a third protein. These calls come from enrichment with a bait or labelling near it, and not all partners need be listed. For some assays here: A no says only that the protein was not detected with the bait. Sequences can lack the tags named with a protein.

B1: SYNJ2BP (endogenous prey in BioID) (protein, UniProt P57105 1-145)
chain: MNGRVDYLVTEEEINLTRGPSGLGFNIVGGTDQQYVSNDSGIYVSRIKENGAAALDGRLQEGDKILSVNGQDLKNLLHQDAVDLFRNAGYAVSLRVQHRLQVQNGPIGHRGEGDPSGIPIFMVLVPVFALTMVAAWAFMRYRQQL
Consider B1, for which the figures for the binding entry in experiment [1] and in experiment [2] were “no binding” and “binds”, respectively.
